{"source": "patent US20100286226A1", "about": "“COMBINATION THERAPY RELATED TO SEROTONIN DUAL ACTION COMPOUNDS” (H. LUNDBECK A/S, priority 2007, published 2010)", "origin": "cited, not measured here", "key": {"ultrasonic vocalization": {"tested_on": "ultrasonic vocalization", "settings": "rat; cited from earlier work"}, "[1]": {"tested_on": "isolation-induced aggression", "settings": "mouse, with subeffective dose of L; cited from earlier work"}}, "note": "At least one compound was matched to its structure with a doubt left."}
{"smiles": "CN(C)CCCC1(c2ccc(F)cc2)OCc2cc(C#N)ccc21", "note": "(centres unmarked) [citalopram]", "values": [{"measurement": "anxiolytic response to co-treatment with L, 5-HTP", "setting": "ultrasonic vocalization", "value": "slightly attenuated"}, {"measurement": "antiaggressive effect on co-administration of a subeffective dose of L, 5-HTP", "setting": "[1]", "value": "greatly potentiated"}]}
